Protein sequences, listed by entry. Tags and fused reporters are not part of them. Lines headed by an entry give the natural chain unless they say otherwise; changes in a name come on top.
UniProt Q01638: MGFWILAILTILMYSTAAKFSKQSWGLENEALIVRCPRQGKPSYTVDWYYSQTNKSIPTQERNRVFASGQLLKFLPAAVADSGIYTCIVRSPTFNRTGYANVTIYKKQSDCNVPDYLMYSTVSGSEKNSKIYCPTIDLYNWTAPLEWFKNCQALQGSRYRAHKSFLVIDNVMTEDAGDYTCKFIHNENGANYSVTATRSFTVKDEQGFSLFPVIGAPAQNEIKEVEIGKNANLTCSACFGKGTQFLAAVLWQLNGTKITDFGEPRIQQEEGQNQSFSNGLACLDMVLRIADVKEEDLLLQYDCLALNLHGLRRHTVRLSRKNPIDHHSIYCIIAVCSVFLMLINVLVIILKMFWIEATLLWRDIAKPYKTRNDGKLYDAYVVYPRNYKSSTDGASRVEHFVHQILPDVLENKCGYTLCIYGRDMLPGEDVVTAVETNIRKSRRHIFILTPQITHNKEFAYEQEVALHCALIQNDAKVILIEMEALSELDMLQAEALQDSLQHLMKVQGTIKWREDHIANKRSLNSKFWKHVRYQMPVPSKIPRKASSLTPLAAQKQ

About 1,800 (2.3%) of roughly 78,000 compounds were called active. Inconclusive means that the source gave no clear call. Such entries were picked first, then a sample of the others. No stated cut-off is given here; in the data, active means inhibition above about 30%; inconclusive means mostly about 10% to 28%; inactive means weaker than that.
These compounds were tested against Interleukin-1 receptor-like 1 (Homo sapiens) (UniProt Q01638) (assay: blocks human ST2 binding to IL-33, primary screen, biochemical, AlphaLISA (AID 1259354)). Details: AlphaLISA ST2-Fc/biotin-IL-33 interaction, 1 h; at 17 µM, active compounds read high.
For `Cc1ccc(C(=O)NCCc2nc3ccccc3[nH]2)cc1[N+](=O)[O-]`, the inhibition was inconclusive: 12%. For `C[C@@]12CC[C@@H](C[C@@H]1N)C2`, the inhibition was active: 41%. In the case of `CCCc1cc(CN(C)C(=O)CC2(c3ccccc3C)CC(=O)N(Cc3ccncc3)C2=O)[nH]n1` (stereo not given), the inhibition is reported as inconclusive: 17%. With `Cc1ccc(C2Nc3cc(C)c(C)cc3NC3=C2C(=O)CC(C)(C)C3)s1` (stereo not given) the inhibition was “inactive”. With `O=C(NCc1ccc2c(c1)OCO2)C1CCC(Cn2c(=O)[nH]c3ccsc3c2=O)CC1` (stereo not given) the inhibition was inconclusive: 11%. In the case of `COc1ccc(CC(=O)N(C)CC2CCCN(CCc3ccc(Cl)cc3)C2)cc1` (stereo not given), the inhibition is reported as “inactive”. `CCc1ccc(N=Cc2c(O)n(-c3ccccc3OC)c(=O)c3ccccc23)cc1` was tested, and the inhibition was inconclusive: 29%. `O=C1CCCC2=C1C(c1ccc(F)cc1)c1c(nc(SCc3ccccc3)[nH]c1=O)N2` (stereo not given) was tested, and the inhibition was “inactive”. In the case of `Cc1csc(=NC(=O)c2ccccc2)n1Cc1ccco1`, the inhibition is reported as inconclusive: 11%. With `Cc1nccn1CCC(=O)N1CCCC(C(=O)Nc2ccccc2Oc2cccnc2)C1` (stereo not given) the inhibition was inconclusive: 11%. In the case of `O=C1CC(c2cccs2)CC2=C1C(c1ccc(Cl)c(F)c1)Nc1ccccc1N2` (stereo not given), the inhibition is reported as inconclusive: 13%. With `COc1ccccc1NC(=O)CCn1cnc(-c2ccccc2)c1-c1nccn1C` the inhibition was inconclusive: 13%. `O=C(COc1cc2oc(=O)c3c(c2cc1Cl)CCC3)OCc1ccccc1` was tested, and the inhibition was inconclusive: 11%. `CC(C)Cn1cc(C(=O)NCC2C3CC4CC(C3)CC2C4)c(=O)c(C(=O)N2CCCCCC2)c1` (stereo not given) was tested, and the inhibition was inconclusive: 16%. In the case of `CN(C)c1ccc(C(=O)N2N=C(c3ccc(Cl)cc3)CC2(O)C(F)(F)F)cc1` (stereo not given), the inhibition is reported as inconclusive: 10%. For `CC1(C)CC(=O)C2=C(C1)Nc1nc(SCc3ccccc3F)[nH]c(=O)c1C2c1cccc(O)c1` (stereo not given), the inhibition was inconclusive: 13%. `Cc1ccc(C(C)C)c(OCCOCCN2CCNCC2)c1` was tested, and the inhibition was inconclusive: 11%. `COc1ccc(C(=O)Nc2ccc(S(N)(=O)=O)cc2)cc1OC` was tested, and the inhibition was “inactive”. For `O=C(O)c1ccc2c(c1)C(=O)N(c1ccc(-c3nc4ccccc4[nH]3)cc1)C2=O`, the inhibition was “inactive”. For `CN(Cc1n[nH]c2c1CCCCC2)C(=O)CC1COCCN1` (stereo not given), the inhibition was inconclusive: 14%. `CN1CCC(Cc2noc(-c3ccccc3N3CCOCC3)n2)CC1` was tested, and the inhibition was inconclusive: 14%. With `Cc1cc(C(=O)N2CCCN(CC3CC3)C(C(C)C)C2)on1` (stereo not given) the inhibition was “inactive”. For `CCOc1ccccc1C(=O)Nc1sc2c(c1C#N)CCC2`, the inhibition was inconclusive: 12%. In the case of `CC(CC(F)(F)F)NC1CCN(S(=O)(=O)c2ccccc2)CC1` (stereo not given), the inhibition is reported as inconclusive: 22%. For `Cc1nn(C)cc1-c1ccnc(N(C)Cc2cccc(CN(C)C)c2)n1`, the inhibition was inconclusive: 13%.
